Test results: PubChem BioAssay AID1117319 (Southern Research Institute, 2015)
Among all 260,000 compounds or so, about 1,500 (0.58%) were called active. The shares of active, inactive and inconclusive entries below differ from those in the screen.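 How the source made its calls: active means inhibition above a set limit at one or more doses, reproduced on every date tested; inconclusive means results disagree between test dates, or hit never tested in dose response; inactive means the rest.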 Starred links: 1 amine or outer side, 2 acyl side, 3 side chain; linkers in the order of their positions; H or OH if unused. Non-standard residues stand in square brackets, D forms with d. Residues, ends and D or L forms follow the SMILES beside them. ξ: configuration not given here. ξR = N=C(N)NCCCC(N)C(=O)O; ξF = NC(Cc1ccccc1)C(=O)O; CO = O=C([*:1])[*:2]

Sequences of proteins named here, by UniProt entry; tags and fusion partners are left off. A change or cut given only in a name is not applied to a line headed by its entry.
UniProt P69720: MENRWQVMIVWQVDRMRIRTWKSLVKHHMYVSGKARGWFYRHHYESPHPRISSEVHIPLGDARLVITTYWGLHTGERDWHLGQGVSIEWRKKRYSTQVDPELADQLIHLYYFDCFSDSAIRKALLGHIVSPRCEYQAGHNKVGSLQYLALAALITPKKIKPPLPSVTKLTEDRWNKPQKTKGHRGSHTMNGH
UniProt P69721: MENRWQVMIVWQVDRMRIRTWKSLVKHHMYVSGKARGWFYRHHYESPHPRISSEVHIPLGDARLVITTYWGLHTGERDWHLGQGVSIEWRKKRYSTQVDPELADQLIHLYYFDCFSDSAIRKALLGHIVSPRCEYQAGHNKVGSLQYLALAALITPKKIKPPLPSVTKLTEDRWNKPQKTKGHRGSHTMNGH
UniProt P69722: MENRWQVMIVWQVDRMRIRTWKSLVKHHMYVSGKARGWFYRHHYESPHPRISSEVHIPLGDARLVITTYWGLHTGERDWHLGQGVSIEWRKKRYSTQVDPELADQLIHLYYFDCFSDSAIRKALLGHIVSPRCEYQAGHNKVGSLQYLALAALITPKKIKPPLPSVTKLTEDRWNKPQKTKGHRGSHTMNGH
UniProt P69723: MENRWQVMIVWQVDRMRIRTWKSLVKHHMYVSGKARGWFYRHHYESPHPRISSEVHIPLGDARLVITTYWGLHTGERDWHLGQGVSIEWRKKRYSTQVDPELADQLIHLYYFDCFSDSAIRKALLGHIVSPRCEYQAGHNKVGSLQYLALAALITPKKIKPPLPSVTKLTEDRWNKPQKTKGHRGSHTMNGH
UniProt Q9HC16: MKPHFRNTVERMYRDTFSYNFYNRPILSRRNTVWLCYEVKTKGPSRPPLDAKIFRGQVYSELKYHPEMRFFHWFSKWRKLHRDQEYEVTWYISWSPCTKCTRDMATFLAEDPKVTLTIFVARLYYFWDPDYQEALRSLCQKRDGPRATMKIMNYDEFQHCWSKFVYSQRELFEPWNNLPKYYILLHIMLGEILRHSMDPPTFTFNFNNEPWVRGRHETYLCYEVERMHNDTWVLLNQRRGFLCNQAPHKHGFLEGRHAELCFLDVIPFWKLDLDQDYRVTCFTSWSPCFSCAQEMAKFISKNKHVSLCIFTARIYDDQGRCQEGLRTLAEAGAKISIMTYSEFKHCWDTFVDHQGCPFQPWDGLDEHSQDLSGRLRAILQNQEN

target: Virion infectivity factor (Human immunodeficiency virus type 1 group M subtype B (isolate BH10)) + Virion infectivity factor (Human immunodeficiency virus type 1 group M subtype B (isolate BRU/LAI)) + Virion infectivity factor (Human immunodeficiency virus type 1 group M subtype B (isolate PCV12)) + Virion infectivity factor (Human immunodeficiency virus type 1 group M subtype B (isolate HXB2)) + DNA dC->dU-editing enzyme APOBEC-3G (Homo sapiens) (UniProt P69720+P69721+P69722+P69723+Q9HC16); test: inhibitors of Vif binding to APOBEC3G peptide, primary screen, biochemical, TR-FRET, GST-Vif 1-94, biotin-A3G peptide, dose response retest (AID 1117319); conditions: active compounds read high;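 further: Vif residues 1-94 fused to GST binding biotinylated APOBEC3G peptide 110-148; 0% = full assay without inhibitor and 100% = GST in place of GST-Vif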

Structure (SMILES)	inhibition
CNC(=O)c1ccsc1NC(=O)C1CCCN1S(=O)(=O)c1cccs1 (stereo not given)	inactive: -0.6%
Cn1c(NC(=O)Cc2ccc(F)cc2)cc(=O)n(C)c1=O	inconclusive: 39.8%
CCN(CC)C(=O)CSc1nnc([C@@H](N)Cc2ccccc2)o1	inconclusive: 41.7%
COc1cccc(/C=N/NC(=O)c2cc3cc([N+](=O)[O-])ccc3s2)c1O	inconclusive: 38.9%
O=C(N/N=C/C(Cl)=C\c1ccccc1)c1cnccn1	inconclusive: 47.8%
CCOc1ncccc1C(=O)OCC(=O)NC1CCCCCC1	inactive: -6.35%
COc1ccc(Oc2c(Cl)cnn(-c3ccccc3)c2=O)cc1	inconclusive: 33.1%
O=S(=O)(Nc1nc2ccccc2nc1N1CCN(c2ccccc2)CC1)c1ccc(F)cc1	inactive: 10.6%
CC(C)(C)Nc1nc(Cl)nc(NCCN2CCOCC2)n1	inconclusive: 41.5%
O=C(NCc1ccccc1)c1csc2c1CCCCC2	inactive: -0.06%
CCCN1CN(Cc2ccccc2)CC2=C1CC(C)(C)CC2=O	inconclusive: 50.5%
Cc1ccccc1C(=O)N1CCC(C(=O)N(CC(C)C)c2c(N)n(CC(C)C)c(=O)[nH]c2=O)CC1	inconclusive: 53.9%
N#Cc1c(/N=C/c2cccs2)sc2c1CCC2	inconclusive: 41.8%
CCOC(=O)N=Nc1c2ccccc2c2nc3no[nH]c3nc12	inactive: 8.41%
Cc1ccc(S(=O)(=O)Cn2nnnc2C(CC(C)C)N2CCN(c3ccccc3)CC2)cc1 (stereo not given)	inactive: -7.24%
COc1ccc(C)cc1NC(=O)c1ccoc1C	inconclusive: 37.1%
Cc1ccc(C(=O)Nc2onc(C)c2C#N)cc1	inconclusive: 43.9%
O/N=C/c1cccn1-c1ccc(O)cc1	inconclusive: 34.9%
Cc1ccc(OCC(O)CN2CCN(c3ccccc3)CC2)cc1 (stereo not given)	inconclusive: 37.4%
Cc1cc(NC(=O)CCC2CCCC2)no1	inconclusive: 27.4%
O=C(CCc1c[nH]c2ccccc12)N1CCN(c2ccc(F)cc2)CC1	inactive: -3.01%
O=C1CC(C(=O)Nc2cccc3ccccc23)C2(CCCC2)O1 (stereo not given)	inconclusive: 42.5%
N=C(N)SCc1ccccn1	inconclusive: 43.9%

Structure (SMILES)	inhibition
CN1/C(=C/c2cc[n+](C)c3ccccc23)C=Cc2ccccc21	inconclusive: 43.7%
Clc1ccc(Nc2ncnc3c2cnn3-c2ccccc2)cc1	inconclusive: 42.2%
Cc1ccc(S(=O)(=O)N2CCC(=O)N(CCOC(=O)Nc3cccc(Cl)c3)CC2)cc1	inconclusive: 41.4%
O=C(Nc1ccccc1N1CCOCC1)c1cc(-c2ccco2)nc2ccccc12	inconclusive: 58.8%
CC(C)(C)NC(=O)CSc1nc2ccccc2n1-c1ccccc1	inconclusive: 33.1%
CCn1c(SCC(=O)c2cc(C)n(CC3CCCO3)c2C)nc2ccccc21 (stereo not given)	inconclusive: 41.1%
COc1cc(S(=O)(=O)N2CCOCC2)cc(C(=O)OCC(=O)NCc2ccco2)c1OC	inconclusive: 37.7%
Cc1cc(CN(C)C(=O)CC2C(=O)NCCN2Cc2c(F)cccc2Cl)n[nH]1 (stereo not given)	inconclusive: 37.4%
Oc1ccccc1C1CC(c2cccs2)=NC(c2ccc(Cl)cc2)N1 (stereo not given)	inconclusive: 48.8%
CC(=C\C(=O)O)/C(=C/c1ccc(C)o1)C(=O)O	inconclusive: 37.3%
COc1cc(CNn2nnnc2N)cc(Br)c1OCc1c(Cl)cccc1Cl	inconclusive: 35.8%
COc1ccc(N(CC(=O)N2CCN(Cc3ccccc3)CC2)S(C)(=O)=O)cc1OC	inconclusive: 51.7%
Cc1ccnc(N=Cc2c(O)ccc3oc4c(c23)CCCC4)c1	inconclusive: 48%
C/C(=N\OCc1nc2ccccc2c(=O)n1/N=C/c1cc([N+](=O)[O-])ccc1O)c1ccccc1	inconclusive: 40.2%
C1CNCCOCCNCCN1	inconclusive: 38.1%
COC(=O)C(C)n1nc(C)n(-c2ccc(C)cc2)c1=O (stereo not given)	inconclusive: 53%
Clc1ccc(-c2nc(/C=N/N3CCOCC3)c3ccccn23)cc1	inconclusive: 34.8%
CCc1cc(-c2n[nH]c(=S)n2Cc2ccccc2)cs1	inconclusive: 61.8%
CC1=C(C(=O)OCc2ccccc2)C(c2cccs2)N2C(=O)CCSC2=N1 (stereo not given)	inactive: -5.63%
CCOC(=O)C1CCN(C(=O)CN(c2ccc(OC)cc2)S(=O)(=O)c2c(C)nn(C)c2C)CC1	inconclusive: 62.4%
CC(=O)Nc1ccc(S(=O)(=O)NCc2cn3c(C)csc3n2)cc1	inconclusive: 35.7%
N#Cc1cccc(NC(=O)COC(=O)CCc2ccc(S(=O)(=O)N3CCOCC3)cc2)c1	inconclusive: 49.8%
COCCn1c(=S)[nH]c2cc(C(=O)N3CCC(C(N)=O)(N4CCCCC4)CC3)ccc2c1=O	inconclusive: 34.1%

Four entries picked at random from those above:
Structure (SMILES)	inhibition
COc1cc(S(=O)(=O)N2CCOCC2)cc(C(=O)OCC(=O)NCc2ccco2)c1OC	inconclusive: 37.7%
CC(=O)Nc1ccc(S(=O)(=O)NCc2cn3c(C)csc3n2)cc1	inconclusive: 35.7%
Oc1ccccc1C1CC(c2cccs2)=NC(c2ccc(Cl)cc2)N1 (stereo not given)	inconclusive: 48.8%
CC(C)(C)NC(=O)CSc1nc2ccccc2n1-c1ccccc1	inconclusive: 33.1%

Later entries.

Structure (SMILES)	inhibition
C/C(CCc1ccco1)=N\NC(=O)CNc1cccc2ccccc12	inconclusive: 42.1%
O=C(NCCCNC(=O)c1cncc(O)c1)c1cncc(O)c1	inconclusive: 42.5%
COCCNC(=O)Cn1cc2c(n1)CCCCC2	inconclusive: 33.4%
CC(C)[C@H](NC(=O)[C@H](CCCN=C(N)N)NC(=O)NC(Cc1ccccc1)C(=O)O)C(=O)NC(C=O)CCCN=C(N)N (stereo partly drawn) ({ξF-CO}-Arg-Val-[ξR]-aldehyde)	inconclusive: 37.9%
COc1ccc(-c2cc(C)nc3c(-c4ccccc4)cnn23)cc1	inconclusive: 55.5%
Fc1ccc(Cn2cnc3ccccc32)cc1	inconclusive: 56.6%
O=C(C1=C[C@@H](C2CCCCC2)C[C@@H](OCc2ccc(CO)cc2)O1)N1CCN(Cc2ccccc2)CC1	inconclusive: 37.2%
c1ccc(-c2cc3c(-n4cccc4)ncnc3o2)cc1	inconclusive: 47.9%
Cc1c(C(=O)OCC2CCCO2)[nH]c2c1C(=O)CC(c1ccco1)C2 (stereo not given)	inconclusive: 56.8%
O=C(OCc1nnc(-c2ccccc2)o1)c1cc([N+](=O)[O-])ccc1Cl	inconclusive: 46.5%
CCN1CCCC1Cn1cnc2c([nH]c3cccc(Cl)c32)c1=O (stereo not given)	inactive: 32.2%
Cc1c(NC(=O)c2cc3nc(-c4ccccc4)cc(C)n3n2)c(=O)n(-c2ccccc2)n1C	inconclusive: 38.9%
COC(=O)C1=C(C)N=c2s/c(=C/c3ccoc3)c(=O)n2C1c1ccccc1 (stereo not given)	inconclusive: 45.5%
CN(C1CCS(=O)(=O)C1)S(=O)C12CC3CC(CC(C3)C1)C2 (stereo not given)	inconclusive: 47%
COc1cccc(OC)c1C(=O)N1CC(C)OC(C)C1 (stereo not given)	inconclusive: 60.9%
O=C1ON=C(c2ccccc2)/C1=C/c1ccc(-c2ccccc2[N+](=O)[O-])o1	inconclusive: 64.2%
COc1cc(/C=C2\SC(=S)N(C(C(=O)O)c3ccccc3)C2=O)ccc1O (stereo not given)	inconclusive: 45.5%
O=C(CNC(=O)c1cccc(Cl)c1)NCCCSc1ccccc1	inactive: -1.26%
CC(C)(C)C(=O)Nc1ccc(C(=O)N/N=C/c2ccccc2OC(=O)c2ccccc2)cc1	inconclusive: 51.9%
Cc1nc2cc(NC(=O)N3c4ccccc4CC3C)ccc2o1 (stereo not given)	inconclusive: 35%
COc1cccc(CNc2ccc(N3CCC(C)CC3)cc2)c1OC	inconclusive: 33.2%
Cc1ccc(S(=O)(=O)N2c3ccccc3OCC2c2ccccc2)cc1 (stereo not given)	inconclusive: 57.1%
NC(=O)Nn1c(CCC(=O)O)ccc1-c1ccc(F)cc1	inactive: 4.46%

Structure (SMILES)	inhibition
CN(C)C(CNC(=O)CN1C(=O)NC2(CCc3ccccc32)C1=O)c1ccco1 (stereo not given)	inconclusive: 35.7%
Cc1ccc(NC(=O)c2ccccc2OCc2ccc([N+](=O)[O-])cc2)nc1	inconclusive: 43.1%
O=C1C=C(O)CC(c2ccco2)C1 (stereo not given)	inconclusive: 50.3%
O=C(Nc1ccccn1)N1CCOCC1	inconclusive: 33.1%
O=C(NC(=Nc1ccccc1)N1CCOCC1)Nc1ccccc1	inconclusive: 47.6%
CCCn1c(SCC(=O)Nc2c(C)cccc2C)nnc1C(C)C	inconclusive: 50.3%
CCOC(=O)C(Oc1ccc(=O)n(-c2ccccc2)n1)C(C)=O (stereo not given)	inconclusive: 60.6%
CCOc1ccc(/C=N/NC(=O)CSc2ccccn2)cc1O	inconclusive: 48.4%
c1ccc(Cn2nnnc2C(c2ccccc2)N2CCN(c3nc4ccccc4s3)CC2)cc1 (stereo not given)	inconclusive: 37.4%
COc1ccc(NC(=O)Cn2nnc(-c3ccc(CN4CCOCC4)cc3)n2)c(OC)c1	inconclusive: 22.4%
O=C(NNS(=O)(=O)c1ccccc1)c1cccnc1	inconclusive: 34.1%
Cc1cccc(N2C(=O)c3ccc(Br)cc3C2=O)n1	inactive: 1.11%
Cc1cc(C)c(C(=O)CSc2nnc(C)s2)c(C)c1	inactive: -3.21%
O=C1CC(c2ccccc2)=Nc2ccccc2N1	inconclusive: 58.9%
COc1ccc(C(=O)OCC(=O)c2ccc(C)c(S(=O)(=O)N3CCOCC3)c2)cc1OC	inconclusive: 62%
COc1ccccc1N(CC(=O)N/N=C/c1c(O)ccc2ccccc12)S(C)(=O)=O	inconclusive: 42.9%
Cc1csc(SCC(=O)c2c(N)n(CC(C)C)c(=O)n(C)c2=O)n1	inconclusive: 60.1%
Clc1cccc(-c2nc3nc4ccccc4nc3n2Cc2ccco2)c1	inconclusive: 61%
CCOc1ccc2noc3c2c1C(=O)c1ccccc1-3	inactive: 31.7%
CCN(CC)S(=O)(=O)c1cccc(N=NC2=C(O)CCCC2=O)c1	inconclusive: 46.7%
COc1ccc(-c2nnc(SCC(=O)c3ccc[nH]3)o2)cc1	inactive: 0.99%
